Results are given in words; binding and its absence hold for the method and conditions named. Binding can be weak; no strength is given.
Substrate: SPN C-terminal domain (SPNct; residues 193–451) (S. pyogenes M3) (UniProt A0A0H2)
Assay: crystal structure; purified SPNct-IFS complex after α-chymotrypsin proteolysis; sitting drop at 295 K, 20% tacsimate pH 4.0, 20% PEG 3350; Se SAD, refined at 1.70 Å; two heterodimeric complexes in the asymmetric unit; both purified

B1: immunity factor for SPN (IFS), full length (residues 1–161) (protein, UniProt Q2VJ58 1-161)
chain: MYKVPKGLEHYQKMFQKEVTVNDLKKYLIGSDKEYRITRRDSYMGDISDPEVILEYGVYPAFIKGYTQLKANIEEALLEMSNSGQALDIYQAVQTLNAENMLLNYYESLPFYLNRQSILANITKALKDAHIREAMAHYKLGEFAHYQDTMLDMVERTIETF
Q: For B1, which binding is on record?
A: binds
